# Data source: PubChem BioAssay AID686938 (Drosophila RNAi Screening Center, 2013)
# Assay: 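Looking for CRAC channel components and the factors controlling them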 (primary screen)
# Cell system: Drosophila S2R+ cells
# Reagents: long dsRNA against Drosophila genes, about 0.25 µg dsRNA per well, roughly 10,000 cells
# Timing: 5 days of knock-down before the calcium assay
# Treatment: thapsigargin (SERCA pump blocker) to empty calcium stores; entry signal taken 4 min after adding it
# Read-out: 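Duplicate raw fluo-4 intensities per well from a plate reader, at rest and four minutes after thapsigargin emptied calcium stores; entry-to-rest ratio filled for only some wells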
# Reading the numbers: calcium entry signal: higher = stronger calcium signal after store depletion; entry to resting ratio: higher = more calcium entry relative to resting level; resting calcium signal: higher = higher resting calcium signal
# Rule for the call: 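Called when the plate z-score of the entry-to-rest ratio, mean of duplicates, falls below −3; wells with low overall dye signal (Fmax z below −2) or more than five off-targets excluded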
# Meaning of the calls: active = strongly reduced calcium entry; inactive = no strong reduction
# The deposit covers about 23,000 reagents; shown is an unselected part of those that have a named target and a result. Over the whole deposit, 75 (0.33%) got an active call. 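Raw plate signals without normalisation; calls rest on plate z-scores that were not deposited; ratio present for only 364 wells.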 Unmarked entries are inactive. A plus sign joins genes that one reagent is predicted to hit. Reagent sequences are not shown. Not given: the dose of the treatment.
gene knocked down,dsRNA,"calcium entry signal, replicate 1 (fluorescence units)","calcium entry signal, replicate 2 (fluorescence units)",entry to resting ratio,"resting calcium signal, replicate 1 (fluorescence units)","resting calcium signal, replicate 2 (fluorescence units)"
Pka-R1,DRSC11674,4.34e7,4.46e7,,1.97e7,3.09e7
Pka-R1,DRSC11875,4.28e7,4.70e7,,1.83e7,2.92e7
w,DRSC17233,3.91e7,5.00e7,,2.09e7,2.18e7
w,DRSC18850,3.29e7,5.11e7,1.9,1.74e7,2.07e7
Nrk,DRSC07480,2.48e7,3.21e7,,1.32e7,1.50e7
Dlc90F,DRSC16649,5.56e7,4.50e7,,2.55e7,1.82e7
Tmx3,DRSC10471,4.00e7,5.34e7,,1.86e7,3.38e7
egh,DRSC18771,4.43e7,2.97e7,2.2,2.00e7,1.36e7
maca,DRSC15738,1.98e7,5.36e7,,1.13e7,8.25e7
borr,DRSC02749,2.71e7,,,1.95e7,
ema,DRSC14536,2.85e7,6.23e7,,1.56e7,5.38e7
CG32373,DRSC08895,4.18e7,4.36e7,,2.18e7,2.06e7
RunxB,DRSC20395,3.26e7,4.12e7,,1.63e7,1.82e7
RunxB,DRSC20525,5.31e7,4.50e7,,2.49e7,1.98e7
RunxB,DRSC20526,3.26e7,3.46e7,,2.11e7,1.90e7
RunxB,DRSC23150,3.78e7,3.15e7,,2.38e7,1.44e7
CG14309,DRSC14788,3.58e7,4.41e7,,6.66e7,2.09e7
CG10970,DRSC17772,2.95e7,3.15e7,,1.51e7,1.41e7
GstD8,DRSC16689,3.29e7,3.65e7,,1.60e7,1.90e7
CG6707,DRSC10697,3.48e7,5.15e7,,1.90e7,2.29e7
COX7AL2,DRSC00099,1.73e7,2.70e7,,1.06e7,1.19e7
Hcs,DRSC12070,3.37e7,5.35e7,,1.62e7,2.37e7
Hcs,DRSC12256,4.13e7,2.59e7,,2.03e7,1.32e7
scb,DRSC05542,4.30e7,4.16e7,,2.03e7,1.82e7
scb,DRSC07678,3.85e7,4.13e7,,1.98e7,1.85e7
CG10089,DRSC09694,2.92e7,3.76e7,,1.70e7,1.69e7
CG10089,DRSC09695,2.90e7,3.37e7,,1.53e7,1.37e7
Syp,DRSC13444,3.48e7,2.80e7,,1.80e7,1.31e7
Syp,DRSC15286,4.08e7,2.94e7,,1.88e7,1.44e7
gammaCOP,DRSC16955,1.47e7,1.10e7,1.5,1.01e7,8.03e6
Ars2,DRSC04893,3.92e7,,,2.03e7,
CG7031,DRSC16178,3.41e7,3.29e7,,1.94e7,1.69e7
CG7031,DRSC23028,3.09e7,3.75e7,,1.40e7,1.47e7
Sgf11,DRSC09987,3.67e7,4.53e7,,1.86e7,1.98e7
MESR6,DRSC10720,4.46e7,5.66e7,,2.00e7,3.74e7
nAChRbeta3,DRSC00325,4.32e7,,,1.75e7,
raptor,DRSC18359,2.69e7,3.35e7,,1.53e7,1.92e7
CG11889 + CG11891,DRSC14426,3.75e7,5.45e7,,2.00e7,2.19e7
CG11889 + CG11891,DRSC14427,3.37e7,5.34e7,,1.84e7,2.11e7
sv,DRSC17221,4.33e7,6.17e7,2,2.13e7,2.56e7
trus,DRSC15772,3.47e7,4.04e7,,1.71e7,2.08e7
CG11007,DRSC06023,3.17e7,2.78e7,,1.55e7,1.53e7
Liprin-beta,DRSC09795,2.88e7,4.25e7,,1.60e7,2.05e7
Liprin-beta,DRSC23339,4.02e7,2.80e7,,2.28e7,1.31e7
CG6283,DRSC16009,3.02e7,5.51e7,,1.68e7,2.35e7
btz,DRSC14566,3.47e7,4.53e7,,1.62e7,2.13e7
CG31560,DRSC12136,3.47e7,1.82e7,,1.56e7,8.55e6
CG4372,DRSC04466,4.10e7,5.94e7,,2.05e7,2.52e7
Spp,DRSC00328,4.23e7,,,2.33e7,
CG8907,DRSC16453,3.51e7,2.60e7,,1.65e7,1.30e7
CG13226,DRSC06346,2.87e7,2.40e7,,1.46e7,1.12e7
Vago,DRSC19833,2.95e7,4.34e7,,1.56e7,1.94e7
gzl,DRSC12517,4.76e7,6.17e7,,1.95e7,2.73e7
CG9592,DRSC11078,3.66e7,3.67e7,,1.63e7,1.46e7
CG3652,DRSC00624,3.32e7,2.22e7,,1.62e7,1.09e7
Eogt,DRSC00727,4.40e7,,,2.05e7,
tj,DRSC02011,6.02e7,4.64e7,,2.77e7,2.24e7
CG4880,DRSC19923,2.88e7,2.90e7,,1.50e7,1.38e7

Part of the list above, reformatted:
{"gene knocked down": "CG31560", "dsRNA": "DRSC12136", "calcium entry signal, replicate 1 (fluorescence units)": 3.47e7, "calcium entry signal, replicate 2 (fluorescence units)": 1.82e7, "resting calcium signal, replicate 1 (fluorescence units)": 1.56e7, "resting calcium signal, replicate 2 (fluorescence units)": 8.55e6}
{"gene knocked down": "CG4372", "dsRNA": "DRSC04466", "calcium entry signal, replicate 1 (fluorescence units)": 4.10e7, "calcium entry signal, replicate 2 (fluorescence units)": 5.94e7, "resting calcium signal, replicate 1 (fluorescence units)": 2.05e7, "resting calcium signal, replicate 2 (fluorescence units)": 2.52e7}
{"gene knocked down": "Spp", "dsRNA": "DRSC00328", "calcium entry signal, replicate 1 (fluorescence units)": 4.23e7, "resting calcium signal, replicate 1 (fluorescence units)": 2.33e7}
{"gene knocked down": "CG8907", "dsRNA": "DRSC16453", "calcium entry signal, replicate 1 (fluorescence units)": 3.51e7, "calcium entry signal, replicate 2 (fluorescence units)": 2.60e7, "resting calcium signal, replicate 1 (fluorescence units)": 1.65e7, "resting calcium signal, replicate 2 (fluorescence units)": 1.30e7}
{"gene knocked down": "CG13226", "dsRNA": "DRSC06346", "calcium entry signal, replicate 1 (fluorescence units)": 2.87e7, "calcium entry signal, replicate 2 (fluorescence units)": 2.40e7, "resting calcium signal, replicate 1 (fluorescence units)": 1.46e7, "resting calcium signal, replicate 2 (fluorescence units)": 1.12e7}
